From the supplement of paper PMC3682954
Where “and” joins values, the source holds several entries; their conditions need not be identical. Equal entries are not always repeated. Structures can show the parent of a compound that is named as a salt. ± gives the standard deviation of the averaged measurements. Some of the results follow. Single values are uncertain, as repeats are few or missing.

Tested on: RAW 264.7
Test: HMGB1-induced TNF-alpha production relative to HMGB1-stimulated control; higher = more TNF-alpha secretion (less inhibition)
Settings: stimulus: HMGB1 5 ug/ml, 18 h
[1] = compound concentration: 1 ug/ml

Row | Compound | HMGB1-induced TNF-alpha production (compound concentration: 3 uM) | HMGB1-induced TNF-alpha production [1] [%]
1 | C=CCC1(CC(C)C)C(=O)NC(=O)NC1=O [Butalbital] | 80.7% | 
2 | O=C1CCO1 | 93 ± 6% | 
3 | O=C(CCCN1CCC(n2c(=O)[nH]c3ccccc32)CC1)c1ccc(F)cc1 [Benperidol] | 74.6% | 
4 | COc1ccc(C(=O)OC2C[C@H]3CC[C@@H](C2)N3C)cc1OC (stereo partly specified) [Convolamine hydrochloride] | 101% | 
5 | CN[C@@H]1[C@H]2[C@@H]3CCN2C[C@H]1O3 [Loline] |  | 71.8
6 | C[C@@H]1CC[C@]2(NC1)O[C@H]1C[C@H]3[C@@H]4CC=C5C[C@@H](O)CC[C@]5(C)[C@H]4CC[C@]3(C)[C@H]1[C@@H]2C [Solasodine] |  | 72.1
7 | Cc1ccc2[nH]cc(CCN)c2c1 [5-Methyltryptamine Hydrochloride] |  | 83.7
8 | CCC(=O)O[C@H]1CC[C@H]2[C@@H]3CCC4=CC(=O)CC[C@]4(C)[C@H]3CC[C@]12C [Testosterone propionate] | 103% | 
9 | CCC(=O)O[C@H]1CC[C@H]2[C@@H]3CCC4=CC(=O)CC[C@]4(C)[C@H]3CC[C@]12C | 93.5% | 
10 | COc1ccc(OC)c(C(O)C(C)N)c1 (stereo unspecified) [Methoxamine hydrochloride] | 91.8 ± 20% | 
11 | COc1ccc(OC)c(C(O)C(C)N)c1 (stereo unspecified) | 86.7% | 
12 | Cc1o[nH]c(=O)c1CC(N)C(=O)O (racemic) [(±)-AMPA hydrobromide] | 61% | 
13 | CCCCOC(=O)c1ccccc1C(=O)OCCCC | 85.5% | 
14 | CC[C@@H](CO)NC(=O)[C@@H]1C=C2c3cccc4[nH]cc(c34)C[C@H]2N(C)C1 | 91.6% | 
15 | CC[C@@H](CO)NC(=O)[C@@H]1C=C2c3cccc4[nH]cc(c34)C[C@H]2N(C)C1 [Methylergometrine maleate] | 72% | 
16 | CC[C@@H](CO)NC(=O)[C@@H]1C=C2c3cccc4[nH]cc(c34)C[C@H]2N(C)C1 [Methylergonovine maleate] | 98.2% | 
17 | CCC1(C2=NCCN2)Cc2ccccc2O1 (stereo unspecified) | 99.3% | 
18 | CCC1(C2=NCCN2)Cc2ccccc2O1 (stereo unspecified) [Efaroxan] | 90.5% | 
19 | CCC1(C2=NCCN2)Cc2ccccc2O1 (stereo unspecified) [Efaroxan hydrochloride] | 78% | 
20 | CCOC(=O)c1ncn2c1[C@@H]1CCCN1C(=O)c1cc(OC)ccc1-2 | 111% | 
21 | NC(N)=Nc1ccc2[nH]c3c(c2c1)C[C@@]1(O)[C@H]2Cc4ccc(O)c5c4[C@@]1(CCN2CC1CC1)[C@H]3O5 [Guanidinyl-naltrindole di-trifluoroacetate] | 102% | 

Row | Compound | HMGB1-induced TNF-alpha production (compound concentration: 3 uM) | HMGB1-induced TNF-alpha production [1] [%]
22 | C[C@@H]1C[C@@H]([C@H](O)CC2CC(=O)NC(=O)C2)C(=O)[C@@H](C)C1 [Cycloheximide] | 10.9% | 
23 | C[C@@H]1C[C@@H]([C@H](O)CC2CC(=O)NC(=O)C2)C(=O)[C@@H](C)C1 | 14.6% | 
24 | CN1[C@@H]2CC[C@H]1C[C@@H](OC(=O)c1cc(Cl)cc(Cl)c1)C2 [3-Tropanyl-3,5-dichlorobenzoate] | 105% | 
25 | O=C(O)C(Cl)Cl | 106% | 
26 | CC(C)(C)c1cc(C=C(C#N)C#N)cc(C(C)(C)C)c1O [Tyrphostin A9] | 289% | 
27 | O=C(O)c1nn(Cc2ccc(Cl)cc2Cl)c2ccccc12 | 91.9% | 
28 | O=C(O)c1nn(Cc2ccc(Cl)cc2Cl)c2ccccc12 [Lonidamine] | 98.5% | 
29 | COc1ccc2c(c1OC)C(=O)O[C@@H]2[C@H]1c2cc3c(cc2CCN1C)OCO3 [(1R,9S)-(-)-beta-Hydrastine ; Hydrastine] |  | 80.8
30 | COc1ccc2c(c1OC)C(=O)O[C@@H]2[C@H]1c2cc3c(cc2CCN1C)OCO3 | 78.2% | 
31 | Cc1cc(C(C#N)c2ccc(Cl)cc2)c(Cl)cc1NC(=O)c1cc(I)cc(I)c1O (stereo unspecified) [Closantel] | 67 ± 12% | 
32 | O=c1[nH]oc2c1CCNC2 [THIP Hydrochloride] | 98.8% | 
33 | O=c1[nH]oc2c1CCNC2 [THIP hydrochloride] | 98.2% | 
34 | CC(C)(O)[C@@H]1[C@H]2OC(=O)[C@@H]1[C@]1(O)C[C@H]3O[C@]34C(=O)O[C@H]2[C@]14C [Picrotin] |  | 81
35 | NC(Cc1cc(O)c(O)cc1O)C(=O)O (racemic) [6-Hydroxy-DL-DOPA] | 98.1% | 
36 | C[N+]1(C)[C@@H]2CC(OC(=O)[C@H](CO)c3ccccc3)C[C@H]1[C@@H]1O[C@@H]12 (single isomer, unassigned; (-)) [(-)-Scopolamine methyl nitrate] | 90.7% | 
37 | C[N+]1(C)CCc2cc3c(cc2[C@H]1[C@@H]1OC(=O)c2c1ccc1c2OCO1)OCO3 [(-)-Bicuculline methbromide, 1(S), 9(R)] | 76.5% | 
38 | Cc1nnc2n1-c1ccc(Cl)cc1C(c1ccccc1)=NC2 [Alprazolam] | 96.2% | 
39 | COc1ccc2c(c1O)-c1cccc3c1[C@@H](C2)N(C)CC3 [R(-)-Apocodeine hydrochloride] | 89.8% | 
40 | COc1cc2c(cc1OC)C13CCN4CC5=CCOC6CC(=O)N2C1C6C5CC43 (stereo unspecified) |  | 69.2
41 | CC[C@@H](C)C(=O)O[C@H]1[C@H](O)[C@H]2[C@@H](CN3C[C@@H](C)CC[C@H]3[C@@]2(C)O)[C@@H]2C[C@]34O[C@]5(O)[C@@H](OC(=O)[C@@](C)(O)CC)CC[C@@]3(C)[C@@H]5[C@@H](OC(C)=O)[C@@H](OC(C)=O)[C@H]4[C@@]21O | 98.4% | 
42 | NCC1(CC(=O)O)CCCCC1 | 82.9% | 

Row | Compound | HMGB1-induced TNF-alpha production (compound concentration: 3 uM) | HMGB1-induced TNF-alpha production [1] [%]
43 | NCC1(CC(=O)O)CCCCC1 [Gabapentin] | 93.9 ± 18% | 
44 | O=c1cccc2n1C[C@@H]1CNC[C@H]2C1 | 62.2% | 
45 | O=c1cccc2n1C[C@@H]1CNC[C@H]2C1 [Cytisine] |  | 81.9
46 | C=C1CC[C@@]2(O)[C@H]3Cc4ccc(O)c5c4[C@@]2(CCN3CC2CC2)[C@H]1O5 [Nalmefene hydrochloride] | 110% | 
47 | CC(C)Oc1cccnc1N(C)C1CCN(Cc2ccccc2)CC1 | 98% | 
48 | O=[N+]([O-])O[C@H]1CO[C@H]2[C@@H]1OC[C@H]2O[N+](=O)[O-] [Isosorbide dinitrate] | 96.3% | 
49 | O=[N+]([O-])O[C@H]1CO[C@H]2[C@@H]1OC[C@H]2O[N+](=O)[O-] | 70.3% | 
50 | CC(N)C(O)c1ccccc1 (stereo unspecified) | 99.2% | 
51 | CC(N)C(O)c1ccccc1 (stereo unspecified) [Phenylpropanolamine] | 98.2% | 
52 | CC(N)C(O)c1ccccc1 (stereo unspecified) [Phenylpropanolamine hydrochloride] | 79.1% | 
53 | CC1=CCCC2C1(C)CCC(C)C2(C)CC/C(C)=C/Cn1c[n+](C)c2c(N)ncnc21 (stereo unspecified) [AGELASINE (stereochemistry of diterpene unknown)] | 74.9% | 
54 | O=C(CCCN1CCC2(CC1)C(=O)NCN2c1ccccc1)c1ccc(F)cc1 [Spiperone hydrochloride] | 120% | 
55 | O=C(CCCN1CCC2(CC1)C(=O)NCN2c1ccccc1)c1ccc(F)cc1 [Spiperone] | 88 ± 44% | 
56 | O=C(CCCN1CCC2(CC1)C(=O)NCN2c1ccccc1)c1ccc(F)cc1 | 102% | 
57 | CCCN(CCC)C1CCc2ccc(O)cc2C1 (racemic) [(±)-7-Hydroxy-DPAT hydrobromide] | 85.1% | 
58 | CNC1CC(c2ccc(Cl)c(Cl)c2)c2ccccc21 (stereo unspecified) [Indatraline] | 121% | 
59 | CCCCCCC(C)(C)c1ccc([C@@H]2C[C@H](O)CC[C@H]2CCCO)c(O)c1 | 77.2% | 
60 | Cc1ncsc1CCCl [Chlormethiazole hydrochloride] | 98.3% | 
61 | CCC1(c2ccc(N)cc2)CCC(=O)NC1=O (racemic) [(±)-p-Aminoglutethimide] | 90% | 
62 | CCC1(c2ccc(N)cc2)CCC(=O)NC1=O (racemic) [DL-Aminoglutethimide] | 91.5% | 
63 | CCOC(=O)c1cncn1[C@H](C)c1ccccc1 | 85.8% and 95.7% | 

Quoted at random: 2 entries already listed, in no set order.
Row | Compound | HMGB1-induced TNF-alpha production (compound concentration: 3 uM) | HMGB1-induced TNF-alpha production [1] [%]
53 | CC1=CCCC2C1(C)CCC(C)C2(C)CC/C(C)=C/Cn1c[n+](C)c2c(N)ncnc21 (stereo unspecified) [AGELASINE (stereochemistry of diterpene unknown)] | 74.9% | 
57 | CCCN(CCC)C1CCc2ccc(O)cc2C1 (racemic) [(±)-7-Hydroxy-DPAT hydrobromide] | 85.1% | 

Part of the list above, as tab-separated lines.
Row	Compound	HMGB1-induced TNF-alpha production (compound concentration: 3 uM)	HMGB1-induced TNF-alpha production [1] [%]
57	CCCN(CCC)C1CCc2ccc(O)cc2C1 (racemic) [(±)-7-Hydroxy-DPAT hydrobromide]	85.1%	
58	CNC1CC(c2ccc(Cl)c(Cl)c2)c2ccccc21 (stereo unspecified) [Indatraline]	121%	
59	CCCCCCC(C)(C)c1ccc([C@@H]2C[C@H](O)CC[C@H]2CCCO)c(O)c1	77.2%	

(further entries)

Row | Compound | HMGB1-induced TNF-alpha production (compound concentration: 3 uM) | HMGB1-induced TNF-alpha production [1] [%]
64 | CCOC(=O)c1cncn1[C@H](C)c1ccccc1 [Etomidate] | 106% | 
65 | CCCn1c(=O)c2[nH]c(C3CCCC3)nc2n(CCCOC(=O)c2ccc(S(=O)(=O)F)cc2)c1=O | 88.6% | 
66 | CC(O)(CS(=O)(=O)c1ccc(F)cc1)C(=O)Nc1ccc(C#N)c(C(F)(F)F)c1 (stereo unspecified) | 91% | 
67 | CC(O)(CS(=O)(=O)c1ccc(F)cc1)C(=O)Nc1ccc(C#N)c(C(F)(F)F)c1 (stereo unspecified) [Bicalutamide (CDX)] | 88.3% | 
68 | CC(O)(CS(=O)(=O)c1ccc(F)cc1)C(=O)Nc1ccc(C#N)c(C(F)(F)F)c1 (stereo unspecified) [Bicalutamide] | 97.7 ± 4.4% | 
69 | CN1CCc2cc3c(cc2C1C1OC(=O)c2c1ccc1c2OCO1)OCO3 (single isomer, unassigned; (+)) [(+)-Bicuculline] |  | 75.9
70 | CC(C)c1cccc(C(C)C)c1O [Propofol] | 104 ± 20% | 
71 | CC(C)c1cccc(C(C)C)c1O | 90.7% | 
72 | C[C@]12CC[C@H](O)C[C@H]1CC[C@@H]1[C@@H]2CC[C@]2(C)[C@@H](C3=CC(=O)OC3)CC[C@]12O [Digitoxigenin] | 74% | 
73 | CCCCCCCCCOc1ccc2[nH]cc(CCN)c2c1 [5-Nonyloxytryptamine] | 98.5% | 
74 | C[C@]1(C(=O)O)CCC[C@]2(C)c3cc(O)ccc3CC[C@@H]12 [Podocarpic acid] |  | 68.2
75 | CCCN1CCC[C@@H]2Cc3n[nH]cc3C[C@H]21 | 97.2% | 
76 | CCCN1CCC[C@@H]2Cc3n[nH]cc3C[C@H]21 [(-)-Quinpirole hydrochloride] | 112% | 
77 | CCCN1CCC[C@@H]2Cc3n[nH]cc3C[C@H]21 (racemic) [(±)-Quinpirole dihydrochloride] | 91.9% | 
78 | CN1C[C@H](CNC(=O)OCc2ccccc2)C[C@@H]2c3cccc4c3c(cn4C)C[C@H]21 | 77% | 
79 | CN1C[C@H](CNC(=O)OCc2ccccc2)C[C@@H]2c3cccc4c3c(cn4C)C[C@H]21 [Metergoline] | 79.1 ± 37% | 
80 | NNc1ccn([C@@H]2O[C@H](CO)[C@@H](O)[C@H]2O)c(=O)n1 [N4-Aminocytidine] |  | 69.5
81 | C=C(C)CN1CC[C@]23c4c5ccc(O)c4O[C@H]2c2[nH]c4ccccc4c2C[C@@]3(O)C1C5 | 74.2% | 
